The text below walks through data of patent publication US20120101040A1 (FUJIFILM, published 2012).

Amino acid sequences for entries named in this document (tags omitted). Residues count along the entry.
UniProt P06756, 31-1048, chain 1 of 2: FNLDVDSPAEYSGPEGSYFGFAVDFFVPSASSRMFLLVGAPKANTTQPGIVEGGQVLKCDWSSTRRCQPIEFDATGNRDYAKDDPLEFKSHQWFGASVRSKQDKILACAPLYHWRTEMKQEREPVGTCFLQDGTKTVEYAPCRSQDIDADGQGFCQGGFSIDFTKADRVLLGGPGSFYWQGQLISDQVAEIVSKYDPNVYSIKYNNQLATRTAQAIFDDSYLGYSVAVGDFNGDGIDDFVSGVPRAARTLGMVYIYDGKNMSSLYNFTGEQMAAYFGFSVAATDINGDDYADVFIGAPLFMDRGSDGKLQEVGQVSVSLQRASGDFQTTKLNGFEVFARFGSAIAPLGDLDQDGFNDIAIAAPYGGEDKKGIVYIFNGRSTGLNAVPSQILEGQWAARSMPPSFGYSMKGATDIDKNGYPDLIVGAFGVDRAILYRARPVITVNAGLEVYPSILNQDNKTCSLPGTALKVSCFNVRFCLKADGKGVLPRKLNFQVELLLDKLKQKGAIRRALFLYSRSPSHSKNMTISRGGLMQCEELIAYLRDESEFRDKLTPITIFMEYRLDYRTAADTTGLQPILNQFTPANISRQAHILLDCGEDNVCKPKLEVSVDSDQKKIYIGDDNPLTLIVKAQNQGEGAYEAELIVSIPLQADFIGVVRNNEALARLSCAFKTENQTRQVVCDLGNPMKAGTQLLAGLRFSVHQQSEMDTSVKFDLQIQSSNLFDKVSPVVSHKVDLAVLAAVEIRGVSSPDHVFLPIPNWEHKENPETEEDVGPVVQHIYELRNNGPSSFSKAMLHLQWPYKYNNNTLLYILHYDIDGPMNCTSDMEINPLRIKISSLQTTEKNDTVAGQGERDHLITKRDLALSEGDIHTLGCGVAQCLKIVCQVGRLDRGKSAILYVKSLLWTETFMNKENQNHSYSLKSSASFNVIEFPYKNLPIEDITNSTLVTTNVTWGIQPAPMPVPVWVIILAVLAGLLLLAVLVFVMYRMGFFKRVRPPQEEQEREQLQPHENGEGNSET
αVβ3 integrin on HUVECs (normal human umbilical vein endothelial cells), UniProt P05106, 27-788, chain 2 of 2: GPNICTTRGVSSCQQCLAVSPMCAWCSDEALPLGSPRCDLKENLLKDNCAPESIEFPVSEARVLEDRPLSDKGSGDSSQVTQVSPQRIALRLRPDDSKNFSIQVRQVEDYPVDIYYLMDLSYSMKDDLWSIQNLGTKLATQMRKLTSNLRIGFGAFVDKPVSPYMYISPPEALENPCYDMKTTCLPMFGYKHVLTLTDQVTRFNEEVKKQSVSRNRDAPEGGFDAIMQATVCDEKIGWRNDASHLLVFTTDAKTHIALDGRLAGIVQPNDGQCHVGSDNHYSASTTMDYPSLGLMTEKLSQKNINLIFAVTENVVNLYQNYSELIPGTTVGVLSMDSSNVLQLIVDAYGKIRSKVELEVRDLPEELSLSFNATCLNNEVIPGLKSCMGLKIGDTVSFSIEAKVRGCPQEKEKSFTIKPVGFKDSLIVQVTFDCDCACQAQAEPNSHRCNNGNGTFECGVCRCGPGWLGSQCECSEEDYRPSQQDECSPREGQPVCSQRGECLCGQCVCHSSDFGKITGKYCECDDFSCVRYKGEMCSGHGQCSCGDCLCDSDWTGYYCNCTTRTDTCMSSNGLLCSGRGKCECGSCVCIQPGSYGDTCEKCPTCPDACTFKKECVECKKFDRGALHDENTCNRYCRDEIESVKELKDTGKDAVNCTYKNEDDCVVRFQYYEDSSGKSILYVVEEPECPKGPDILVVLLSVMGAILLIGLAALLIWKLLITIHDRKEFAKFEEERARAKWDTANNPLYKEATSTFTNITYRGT

This assay deals with T1, αVβ3 integrin on HUVECs (normal human umbilical vein endothelial cells) (human, UniProt P06756 31-1048; P05106 27-788).
T1 construct: whole, on cells; Never tested as a purified protein
Description: HUVEC adhesion to coated plate, inhibited by anti-αV antibody, DNA assay. On the procedure:
DNA assay was performed for quantitative determination of the number of cells on the obtained plates. 100 μl of SDS solution (i.e., a solution obtained by dissolving 20 mg of SDS in 100 mL of 1×SSC solution (obtained by dissolving 17.999 g of NaCl and 8.823 g of Na₃-citrate in 2 L of ultrapure water)) was added to wells of the obtained plates. Each plate was allowed to stand still at 37° C. for 1 hour. The total amount of each obtained solution was transferred to a 96-well black plate (Non-treated) and 100 μL of a Hoechst solution (obtained by mixing 20 μl of Hoechst 33258 with 20 mL of a 1×SSC solution) was added to every well, followed by determination of the fluorescence intensity using a plate reader. The fluorescence intensity was measured using a Gemini EM plate reader (Molecular Devices Corporation) at an excitation wavelength of 355 nm and a determination wavelength of 460 nm. A calibration curve was created using a suspension containing HUVECs at the adjusted number of cells.
Specifically, cell adhesion experiments were conducted as described in (2) above. […] The time for cell adhesion was determined to be 1 hour at 37° C. as in the case of (2) above. Quantitative determination of the number of cells was carried out by DNA assay as in the case of (2) above.

B1: CBE3 recombinant gelatin (other)
chain: GAPGAPGLQGAPGLQGMPGERGAAGLPGPKGERGDAGPKGADGAPGAPGLQGMPGERGAAGLPGPKGERGDAGPKGADGAPGKDGVRGLAGPIGPPGERGAAGLPGPKGERGDAGPKGADGAPGKDGVRGLAGPIGPPGPAGAPGAPGLQGMPGERGAAGLPGPKGERGDAGPKGADGAPGKDGVRGLAGPPGAPGLQGAPGLQGMPGERGAAGLPGPKGERGDAGPKGADGAPGAPGLQGMPGERGAAGLPGPKGERGDAGPKGADGAPGKDGVRGLAGPIGPPGERGAAGLPGPKGERGDAGPKGADGAPGKDGVRGLAGPIGPPGPAGAPGAPGLQGMPGERGAAGLPGPKGERGDAGPKGADGAPGKDGVRGLAGPPGAPGLQGAPGLQGMPGERGAAGLPGPKGERGDAGPKGADGAPGAPGLQGMPGERGAAGLPGPKGERGDAGPKGADGAPGKDGVRGLAGPIGPPGERGAAGLPGPKGERGDAGPKGADGAPGKDGVRGLAGPIGPPGPAGAPGAPGLQGMPGERGAAGLPGPKGERGDAGPKGADGAPGKDGVRGLAGPPG
notes: Coated uncrosslinked from PBS solution onto non-treated 96-well plates in the cell adhesion tests; also called R-Gel
On to B1, for which the binding result is listed as “binds”.
